No constants are given. Whether binding was seen depends on the method and setting. In cells and extracts the contact can be indirect. A result given as binding can be weak or reduced; the word gives no strength.
Target: ADRB1Δ3rdloop^b, Cerulean-tagged (human) (UniProt P08588)
Test: FRET or BRET; receptor-arrestin FRET in single living HEK293 cells co-transfected with ADRB1-Cer constructs and YFP-ARRB2; superfused with FRET buffer (137 mM NaCl, 4.5 mM KCl, 10 mM HEPES, 2 mM CaCl2, 2 mM MgCl2, pH 7.4) or 10 μM norepinephrine, room temperature; YFP/Cer ratio; also 0.1 μM and 1 μM norepinephrine (S3 Fig)

By UniProt entry, the sequences of proteins in these tests, tags left out. Where a name states a change or a piece, a line headed by the entry shows the natural chain unless it says otherwise.
UniProt P08588: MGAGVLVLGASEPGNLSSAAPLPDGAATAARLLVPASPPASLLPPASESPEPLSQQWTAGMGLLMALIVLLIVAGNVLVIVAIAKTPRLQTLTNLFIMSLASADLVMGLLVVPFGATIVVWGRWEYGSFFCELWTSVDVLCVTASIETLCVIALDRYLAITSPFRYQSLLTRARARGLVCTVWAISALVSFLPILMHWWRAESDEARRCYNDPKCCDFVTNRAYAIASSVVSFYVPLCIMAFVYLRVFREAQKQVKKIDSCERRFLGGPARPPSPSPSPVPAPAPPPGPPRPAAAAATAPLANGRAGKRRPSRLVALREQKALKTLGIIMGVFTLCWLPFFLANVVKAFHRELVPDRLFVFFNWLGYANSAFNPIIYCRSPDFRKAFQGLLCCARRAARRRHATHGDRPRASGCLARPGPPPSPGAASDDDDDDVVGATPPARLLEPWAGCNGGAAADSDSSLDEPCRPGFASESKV

binding: binds
Substance: YFP-β-arrestin2 (from UniProt P32121 1-409)
